Test results published in publication PMC3669024, “Pharmacological Characterization of a 5-HT1-Type Serotonin Receptor in the Red Flour Beetle, Tribolium castaneum” (PLoS ONE, 2013).
Counter-ions that a name gives are not always drawn.

The chains behind the UniProt entries cited, without tags or fusion partners.
UniProt R9ULB8, entry or part of it: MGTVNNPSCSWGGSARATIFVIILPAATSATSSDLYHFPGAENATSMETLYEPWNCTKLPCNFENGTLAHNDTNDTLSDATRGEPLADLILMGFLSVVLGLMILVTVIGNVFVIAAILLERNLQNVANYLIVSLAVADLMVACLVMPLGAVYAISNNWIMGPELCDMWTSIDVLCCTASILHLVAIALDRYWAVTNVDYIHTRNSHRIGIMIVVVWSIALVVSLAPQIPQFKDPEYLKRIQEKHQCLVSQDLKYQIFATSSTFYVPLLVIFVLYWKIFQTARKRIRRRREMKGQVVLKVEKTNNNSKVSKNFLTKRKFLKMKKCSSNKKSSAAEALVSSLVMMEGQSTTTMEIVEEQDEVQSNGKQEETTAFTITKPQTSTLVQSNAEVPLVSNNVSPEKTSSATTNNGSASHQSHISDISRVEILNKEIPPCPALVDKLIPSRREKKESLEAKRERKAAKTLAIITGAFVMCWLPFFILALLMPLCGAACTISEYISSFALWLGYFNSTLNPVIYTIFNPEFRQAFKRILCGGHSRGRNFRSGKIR

Biological target: Trica5-HT1 (Tribolium castaneum, UniProt R9ULB8)
Assay: Aequorin-luminescence assay, antagonist inhibition of 5-HT mediated activation of Trica5-HT1 in CHO-WTA11 cells
Type: cell-based
Settings: inhibition of 5-HT (100 nM) mediated activation
Procedure: General binding studies were performed in Chinese hamster ovary (CHO) WTA11 cells stably coexpressing apoaequorin and the promiscuous Gα16. This allowed us to measure the pharmacology independent of the downstream signaling. CHO-PAM28 cells stably expressing apoaequorin, but not the promiscuous Gα16, and human embryonic kidney cells (HEK) 293 cells were used to measure downstream signaling via Ca^2+ and cAMP, respectively. CHO cell lines were provided by Prof. Marc Parmentier (University of Brussels, Belgium) and Dr. Michel Detheux (Euroscreen S.A., Belgium). HEK293 cells were a gift from Prof. Arnd Baumann (Research Centre Jülich, Germany.
Cells were cultured in vitro as monolayers at 37°C, 5% CO2 and high relative humidity, and subcultivated twice a week. […] HEK293 cells were cotransfected with receptor construct (4 µg) and CRE-luciferase construct (2 µg), consisting of the open reading frame of the reporter gene, luciferase, downstream of a multimerized cAMP-response-element (CRE6x), [39]. […]
The transfected CHO cells were detached with phosphate buffered saline (PBS) containing 0.2% EDTA and collected in DMEM/F-12 (without phenol red, with L-glutamine and 10 mM HEPES) (Gibco). The amount of viable cells was determined using the NucleoCounter NC-100+TM (Chemometic). […] Receptor activity was measured as the light emission after adding 50 µl of the cell suspension. […]

CN1CCN2c3ccccc3Cc3ccccc3C2C1 (centres unmarked) [mianserin, mianserin hydrochloride]
IC50: no inhibition
logIC50 (mean ± SEM) (given as negative log values): no inhibition
